Experimental data from patent US20090281040A1, “Methods For Treating Endoplasmic Reticulum (ER) Stress Disorders” (priority 2008, published 2009).
These are yes or no findings as the source states them, for the method shown. For part of these data: Binding seen in cells or lysates may run through a third protein. Some entries that bind do so weakly or less than the wild type.

The chains behind the UniProt entries cited, without tags or fusion partners.
UniProt G3V909: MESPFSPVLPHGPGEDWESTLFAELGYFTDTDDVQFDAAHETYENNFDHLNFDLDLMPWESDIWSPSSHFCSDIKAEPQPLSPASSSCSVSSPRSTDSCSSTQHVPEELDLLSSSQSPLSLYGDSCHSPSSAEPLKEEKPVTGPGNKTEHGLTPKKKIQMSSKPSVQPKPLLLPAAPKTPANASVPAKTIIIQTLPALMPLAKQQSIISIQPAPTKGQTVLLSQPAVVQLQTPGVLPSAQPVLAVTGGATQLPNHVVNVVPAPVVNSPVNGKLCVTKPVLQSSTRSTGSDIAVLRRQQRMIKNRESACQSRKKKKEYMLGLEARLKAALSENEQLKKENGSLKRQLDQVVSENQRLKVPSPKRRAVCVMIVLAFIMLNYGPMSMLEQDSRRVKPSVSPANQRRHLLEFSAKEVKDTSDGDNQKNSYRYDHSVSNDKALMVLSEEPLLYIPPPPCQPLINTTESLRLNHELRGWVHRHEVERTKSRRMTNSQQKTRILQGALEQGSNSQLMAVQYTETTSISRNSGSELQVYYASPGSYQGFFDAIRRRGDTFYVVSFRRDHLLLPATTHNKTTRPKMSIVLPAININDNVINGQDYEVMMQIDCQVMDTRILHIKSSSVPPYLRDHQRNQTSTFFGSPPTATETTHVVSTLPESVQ

Columns and labels:
[1] = molecular target: Activating Transcription Factor 6 (ATF6), endogenous protein of INS-1 832/13 cells (rat) (UniProt G3V909); assay: co-immunoprecipitation from glycerol gradient fractions of ER extracts, INS-1 832/13 cells (FIG. 8C legend)
[2] = molecular target: Activating Transcription Factor 6 (ATF6), endogenous protein of INS-1 832/13 cells (rat) (UniProt G3V909); assay: WFS1 immunoprecipitated from glycerol gradient fractions 10-11 of ER lysates of INS-1 832/13 cells, immunoblot (FIG. 8C, left panel)
[3] = molecular target: Activating Transcription Factor 6 (ATF6), endogenous protein of INS-1 832/13 cells (rat) (UniProt G3V909); assay: co-immunoprecipitation and immunoblot, INS-1 832/13 cells (FIG. 6A legend)
[4] = molecular target: Activating Transcription Factor 6 (ATF6), endogenous protein of INS-1 832/13 cells (rat) (UniProt G3V909); assay: closing sentence on the co-immunoprecipitations and glycerol gradient fractions of INS1 832/13 cells
[5] = molecular target: Activating Transcription Factor 6 (ATF6), endogenous protein of INS-1 832/13 cells (rat) (UniProt G3V909); assay: co-immunoprecipitation with anti-WFS1 antibody from INS-1 832/13 cells, immunoblot with anti-ATF6; DTT (1 mM) caused time-dependent dissociation, almost complete at 3 hr
[6] = molecular target: Activating Transcription Factor 6 (ATF6), endogenous protein of INS-1 832/13 cells (rat) (UniProt G3V909); assay: co-immunoprecipitation with anti-WFS1 antibody and immunoblot, INS-1 832/13 cells (FIG. 6B legend)

Measured: binding

B1: Wolfram syndrome 1 (WFS1), endogenous protein of INS-1 832/13 cells (protein, rat)
chain: SGTPPPSPSGPPPPPAPQPQARARLNATTSLEQDKIEPPRAPRPQPDSSAGRSAGEATTPEPRAPHASSREGTDKAGPMKADVEIPFEEILEKAKAGDPKAQTEVGKHYLRLANDADEELNSCSAVAWLILAAKQGRREAVKLLRRCLADRKGITSENEAEVKQLSSETDLERAVRKAALVMYWKLNPKKKKQVAVSELLENVGQVNEQDGGAQPGPVPKSLQKQRRMLERLVSSESKNYIALDDFVELTKKYAKGIIPNNLFLQDEDEDEDELSGKSPEDLPLRQKVVKYPLHAIMEIKEYLIDVASKAGMHWLSTIVPTHHINALIFFFIISNLTIDFFAFFIPLVVFYLSFVSMVICTLKVFQDSKAWENFRTLTDLLLRFEPNLDVEQAEVNFGWNHLEPYIHFLLSVVFVIFSFPLASKDCIPCSELAVVSAFFTVTSYMSLSSSAEPYTRRALVTEVAAGLLSLLPTMPVDWPFLKALGQTFFTVPIGHFIILNVSLPCLLYVYLFYLFFRMAQLRNFKGTYCYLVPYLVCFMWCELSVVILLQSTGLGLVRASIGYFLFLFALPILVAGLALMGTVQFARWFLSLDLTKIMVTTVICSVPLLFRWWTKANFSVVGMVKSLTRSSIVKLILVWLTAILLFCWFYVYRSEGMKVYNSTLTWQQYGFLCGPRAWKETNMARTQILCSHLEGHRVTWTGRFKYVRVTEIDNSAESAINMLPFFLGDWMRCLYGEAYPSCSSGNTSTAEEELCRLKQLAKHPCHIKKFDRYKFEITVGMPFGTNGNRGHEEDDITKDIVLRASSEFKDVLLNLRQGSLIEFSTILEGRLGSKWPVFELKAISCLNCMTQLSPARRHVKIEQDWRSTVHGALKFAFDFFFFPFLSAA
binds: all assays above
